Values of other authors as cited in patent US20070065374A1, “Nanoparticulate leukotriene receptor antagonist/corticosteroid formulations” (Elan Pharma International Limited, priority 2005, published 2007).
At least one compound was matched to its structure with a doubt left.

Conditions: human, in vivo

Which duration of action does the source give for `CC(C)(O)c1ccccc1CC[C@@H](SCC1(CC(=O)O)CC1)c1cccc(/C=C/c2ccc3ccc(Cl)cc3n2)c1` [Montelukast] here?
Its duration of action is roughly 24 h.
